Measured values published in patent publication EP4559473A1, “PEPTIDE FOR THE TREATMENT OF DISEASES ASSOCIATED WITH APOLIPOPROTEIN AI OR TRANSTHYRETIN INVOLVEMENT” (Centro de Ingeniería Genética y Biotecnología, priority 2022, dated 2025).
At least one peptide structure holds a part that was inferred or is arguable (an end, a ring closure or a residue). Ends that are not written are not given here.

What was measured:
[1] = Treatment of patients with ischemic heart disease and high blood pressure; type: in vivo; details: six patients, 1 mg every 12 hours intravenously for seven days plus standard therapy
Method: It is exemplified with the results of six patients. They presented ischemic heart disease, associated with high blood pressure, which produced a state of severity. They were treated in the Intermediate Care Unit (IMCU) of the "Luis Díaz Soto" hospital in Havana. These patients were treated with a pharmaceutical composition comprising the peptide identified as SEQ ID NO: 1, so that a peptide dose of 1 mg every 12 hours was administered intravenously for seven days. In addition, they received the standard therapy needed for these cases.
The treatment with this peptide was very safe, and verified by monitoring blood biochemistry parameters and differential blood count.

[2] = Treatment of patients with type II diabetes (diabetic decompensation); type: in vivo; details: five patients, 1 mg every 12 hours intravenously for eight days plus standard therapy; day 8 vs time 0
Method: It is exemplified with ten patients who had diabetic decompensation and reached a state of severity, that let them to be treated in the ICU of the hospital "Luis Díaz Soto" in Havana. Five of these patients were treated with a pharmaceutical composition comprising the peptide identified as SEQ ID NO: 1, so that a peptide dose of 1 mg every 12 hours was administered intravenously for eight days. In addition, they received the standard therapy needed for these cases.
Treatment with this peptide was very safe and was verified by monitoring blood biochemistry parameters and differential blood count.

Apo-AI [3] = assay: Western blot of plasma proteins incubated with the peptide, detected with polyclonal anti-peptide serum; type: binding, human; details: membrane incubated with peptide 200 µg/mL, three hours at 37 °C; plasma of a healthy donor
TTR [4] = assay: as above; type: binding, human; details: membrane incubated with peptide 200 µg/mL, three hours at 37 °C; plasma of a healthy donor
TTR [5] = assay: Affinity chromatography of human plasma on matrix-bound peptide, SDS-PAGE and ESI-MS identification; type: binding; details: human plasma of a healthy donor, 3 hours incubation with matrix-peptide; control matrix without peptide
Apo-AI [6] = assay: as above; type: binding; details: human plasma of a healthy donor, 3 hours incubation with matrix-peptide; control matrix without peptide

**Q.** What does the source list for “SIDLKDKYKNIGAKLVQLVANNTNEEA [peptide identified as SEQ ID NO: 1]”?
**A.** clinical outcome [1]: recovered, and were discharged; blood cholesterol levels ([1]; day 7 vs time 0): decreased; cholesterol levels [2]: remain constant; immune recognition of the peptide bound to Apo-AI (Apo-AI [3]): immune recognition by the antibody vs peptide at the height of the bands corresponding to Apo-AI and TTR; immune recognition of the peptide bound to TTR (TTR [4]): immune recognition by the antibody vs peptide at the height of the bands corresponding to Apo-AI and TTR; plasma protein X2 (TTR) binding to the peptide (TTR [5]): bind to the peptide identified as SEQ ID NO: 1; plasma protein X1 (Apo-AI) binding to the peptide (Apo-AI [6]): bind to the peptide identified as SEQ ID NO: 1
